PubChem BioAssay AID493014 (National Center for Advancing Translational Sciences (NCATS), 2011)
Some of the results follow. The main result of the screen is listed elsewhere. These columns were measured beside it and carry no call. The list favours compounds with an active or inconclusive main result. Words in brackets tell the shape of the fitted curve; partial curves, single points and poor fits give uncertain potencies.

Assay: qHTS Assay to Find Inhibitors of Chronic Active B-Cell Receptor Signaling
Settings: ABC-DLBCL IkBa-CBG/CBR reporter, luminescence ratio (green luciferase fused to IkBa over red control in TMD8 lymphoma cells), 4 h
Summary of the method: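 Cell line TMD8 (human ABC DLBCL), stably expressing tet-inducible CBG68-IkBa fusion and CBR; IMDM/0.5% FBS; cpd up to 46 uM; dox induction, 4 h, 37C/5% CO2; dual luminescence; green/red ratio; MG132 control.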

[1] = measured here: CBR red luminescence, cell number

In the case of `CCOC(=O)N1CCC(Nc2c(NCCN3CCN(c4cccc(Cl)c4)CC3)c(=O)c2=O)CC1`, the AC50 [1] is reported as 1.46 µM [rising, partial curve, poor fit].

For `COc1ccc(CCNC(=O)CSc2nnc3ccc(-c4ccncc4)nn23)cc1`, the AC50 [1] was 20 µM [rising, single point].

With `COc1ccc2cc(C[C@@H]3CC[C@@H](CO)O3)ccc2c1` the AC50 [1] was 11.6 µM [rising, partial curve, poor fit].

With `CCn1ccc(C(=O)N2CCOCC2)n1` the AC50 [1] was 3.98 µM [rising, full curve, poor fit].

For `CC(C)CNc1oc(-c2ccc(F)cc2)nc1C#N`, the AC50 [1] was 6.51 µM [rising, single point].

With `CCOC(=O)c1c(-c2ccc(C)cc2)csc1NC(=O)c1cc2ccccc2oc1=O` the AC50 [1] was 35.5 µM [rising, single point] and the AC50 (measured here: IkBa-CBG green luminescence) was 35.5 µM [falling, single point].

In the case of `O=c1c2ccccc2nc(SCc2ccccc2F)n1C1CCCC1`, the AC50 [1] is reported as 5.8 µM [rising, single point].

For `O=C(CS(=O)(=O)c1ccccc1)c1cc2cc(F)ccc2oc1=O`, the AC50 [1] was 35.5 µM [falling, single point].

In the case of `COc1ccccc1NC(=O)COC(=O)Cc1ccc(S(=O)(=O)N2CCCCC2)s1`, the AC50 [1] is reported as 2.51 µM [rising, full curve, poor fit].

In the case of `Cc1cc(=O)c2ccccc2s1`, the AC50 [1] is reported as 3.16 µM [falling, single point].

With `CCc1ccc(-c2cc(N)n(-c3ccccc3)n2)cc1` the AC50 [1] was 2.51 µM [rising, partial curve, poor fit].

In the case of `O=C(O)CCCCCNc1ccc2nsnc2c1[N+](=O)[O-]`, the AC50 [1] is reported as 20.6 µM [falling, single point].

For `CC(Sc1n[nH]c(=O)n1Cc1ccccc1)C(=O)NC1CCCCC1C` (stereo not drawn), the AC50 [1] was 20.6 µM [falling, partial curve, poor fit].

For `CC1CCCN(C(=O)C2CCN(c3nc(-c4ccccc4)nc4c3CCC4)CC2)C1` (stereo not drawn), the AC50 [1] was 20 µM [falling, partial curve, poor fit].

For `Cn1c(=O)c([N+](=O)[O-])c(NCC(O)c2ccccc2)c2ccccc21` (stereo not drawn), the AC50 [1] was 0.00461 µM [rising, full curve, poor fit].

For `CC(C)[C@H](NC(=O)N1CCn2c1nc1ccccc12)C(=O)NCc1ccc(F)cc1`, the AC50 [1] was 10 µM [falling, partial curve].

In the case of `CC(C)(CNC(=O)c1ccc([N+](=O)[O-])c(Cl)c1)CNC(=O)c1ccc([N+](=O)[O-])c(Cl)c1`, the AC50 [1] is reported as 3.98 µM [falling, full curve].
